# PubChem BioAssay AID743121 – NCATS | 2013
# Aim: 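Partners whose loss is lethal together with topoisomerase I blockade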 (primary screen)
# Cell system: MDA-MB-231 cells, a human breast cancer line
# Reagents: single siRNA against human genes, 20 nM siRNA (0.8 pmol per well)
# Time to read-out: 120 h (drug added 48 h after transfection, read 72 h later)
# Conditions: camptothecin 20 nM (about EC30) for 72 h; vehicle 0.1% DMSO in parallel plates
# Measured: 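CellTiter-Glo ATP signal, scaled to control siRNA as percent viability; sensitisation given as log2 of untreated divided by camptothecin-treated viability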
# Scale: log2 vehicle/camptothecin viability: higher = stronger sensitisation to camptothecin; viability with camptothecin: higher = more viable cells
# Active means: 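Each gene scored by redundant siRNA activity (RSA) over its individual siRNA ratios; a gene is called active at p < 0.001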
# The whole screen tested about 26,000 reagents; shown is a random part of them. Over the whole deposit, 167 (0.63%) were called active. 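Calls are per gene from RSA p-values that are not deposited; an individual active-marked siRNA can sensitise only weakly.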 Unmarked entries are inactive. Reagents against one gene are numbered here. Not all columns of the deposit are shown.
gene,reagent,log2 vehicle/camptothecin viability,viability with camptothecin (% of control)
EPS8L3,1,-0.132,24.4
EPS8L3,2,-0.0148,103
EPS8L3,3,-0.247,59.2
EPS8L3,4,0.0803,59.3
SUMO3,1,-0.329,67.7
SUMO3,2,-0.491,47
SUMO3,3,0.0921,16.3
SUMO3,4,0.0596,95.3
EPG5,1,-0.184,97.7
EPG5,2,0.052,107
EPG5,3,-0.205,99.1
EPG5,4,-0.113,95.4
USP42,1,-0.35,99.2
USP42,2,-0.0672,21.2
USP42,3,-0.162,52.5
USP42,4,-0.0485,100
TNNI3K,1,-0.07,101
TNNI3K,2,-0.123,57.6
TNNI3K,3,-0.272,27.1
TNNI3K,4,-0.08,104
LTC4S,1,-0.263,46.2
LTC4S,2,0.0102,90.6
LTC4S,3,-0.503,71.8
LTC4S,4,-0.43,98.3
GZMA,1,0.0272,78.4
GZMA,2,0.33,50.4
GZMA,3,-0.201,89.2
GZMA,4,-0.185,102
KIF15,1,-0.518,117
KIF15,2,-0.161,96.9
KIF15,3,0.0452,69.7
CLEC1A,1,-0.0441,65.5
CLEC1A,2,-0.0697,57.3
CLEC1A,3,0.0303,69.6
CLEC1A,4,0.406,39.1
ASPA,1,0.206,61.1
ASPA,2,0.00782,43.6
ASPA,3,-0.267,137
ASPA,4,-0.264,99.3
IFNA6,1,-0.00141,93.7
IFNA6,2,-0.0168,86.7
IFNA6,3,-0.296,99.2
IFNA6,4,0.0512,71.7
RECQL4,1,-0.31,33.3
RECQL4,2,0.223,68.5
RECQL4,3,-0.245,66.1
TCN2,1,0.573,7.75
TCN2,2,0.0127,81.1
TCN2,3,0.000157,69.7
TCN2,4,-0.048,93
APOC2,1,-0.0755,100
APOC2,2,0.0303,71.2
APOC2,3,-0.242,81.7
APOC2,4,0.191,77.2
VAMP2,1,0.0653,74.2
VAMP2,2,-0.221,96.3
VAMP2,3,-0.448,90.6
JAZF1,1,-0.222,113
JAZF1,2,-0.217,34.1
JAZF1,3,-0.111,99.5
JAZF1,4,0.279,69.1
IL6R,1,-0.138,113
IL6R,2,-0.0455,58.3
IL6R,3,-0.177,74.1
FLT3,1,-0.333,62.9
FLT3,2,-0.232,88.2
FLT3,3,0.546,56
FLT3,4,-0.242,68.9

Reformatted: 11 of the entries above
| gene | reagent | log2 vehicle/camptothecin viability | viability with camptothecin (% of control) |
| --- | --- | --- | --- |
| RECQL4 | 2 | 0.223 | 68.5 |
| RECQL4 | 3 | -0.245 | 66.1 |
| TCN2 | 1 | 0.573 | 7.75 |
| TCN2 | 2 | 0.0127 | 81.1 |
| TCN2 | 3 | 0.000157 | 69.7 |
| TCN2 | 4 | -0.048 | 93 |
| APOC2 | 1 | -0.0755 | 100 |
| APOC2 | 2 | 0.0303 | 71.2 |
| APOC2 | 3 | -0.242 | 81.7 |
| APOC2 | 4 | 0.191 | 77.2 |
| VAMP2 | 1 | 0.0653 | 74.2 |
